These are yes or no findings as the source states them, for the method shown. Binding seen in cells or lysates may run through a third protein. Some results given as binding are weak or reduced against the parent protein; the word gives no strength.
What was measured:
[1] = target: T1, Mac-1 (neutrophil integrin) (mouse (endogenous in bone marrow neutrophils)) (UniProt P05555+P11835); test: co-IP; lysates of mouse bone marrow-derived neutrophils stimulated with LTB4; incubated overnight with an anti-Mac-1 mAb and immunoprecipitated; JAM-C and NE detected by Western blot
[2] = target: T1, Mac-1 (neutrophil integrin) (mouse (endogenous in bone marrow neutrophils)); test: condition: only neutrophils not stimulated with LTB4; co-IP; lysates of unstimulated (control) mouse bone marrow-derived neutrophils; incubated overnight with an anti-Mac-1 mAb and immunoprecipitated; JAM-C and NE detected by Western blot

Chains of the proteins cited; added tags and fusions are not shown. Lines headed by an entry give the natural chain unless they say otherwise; changes in a name come on top.
UniProt P05555: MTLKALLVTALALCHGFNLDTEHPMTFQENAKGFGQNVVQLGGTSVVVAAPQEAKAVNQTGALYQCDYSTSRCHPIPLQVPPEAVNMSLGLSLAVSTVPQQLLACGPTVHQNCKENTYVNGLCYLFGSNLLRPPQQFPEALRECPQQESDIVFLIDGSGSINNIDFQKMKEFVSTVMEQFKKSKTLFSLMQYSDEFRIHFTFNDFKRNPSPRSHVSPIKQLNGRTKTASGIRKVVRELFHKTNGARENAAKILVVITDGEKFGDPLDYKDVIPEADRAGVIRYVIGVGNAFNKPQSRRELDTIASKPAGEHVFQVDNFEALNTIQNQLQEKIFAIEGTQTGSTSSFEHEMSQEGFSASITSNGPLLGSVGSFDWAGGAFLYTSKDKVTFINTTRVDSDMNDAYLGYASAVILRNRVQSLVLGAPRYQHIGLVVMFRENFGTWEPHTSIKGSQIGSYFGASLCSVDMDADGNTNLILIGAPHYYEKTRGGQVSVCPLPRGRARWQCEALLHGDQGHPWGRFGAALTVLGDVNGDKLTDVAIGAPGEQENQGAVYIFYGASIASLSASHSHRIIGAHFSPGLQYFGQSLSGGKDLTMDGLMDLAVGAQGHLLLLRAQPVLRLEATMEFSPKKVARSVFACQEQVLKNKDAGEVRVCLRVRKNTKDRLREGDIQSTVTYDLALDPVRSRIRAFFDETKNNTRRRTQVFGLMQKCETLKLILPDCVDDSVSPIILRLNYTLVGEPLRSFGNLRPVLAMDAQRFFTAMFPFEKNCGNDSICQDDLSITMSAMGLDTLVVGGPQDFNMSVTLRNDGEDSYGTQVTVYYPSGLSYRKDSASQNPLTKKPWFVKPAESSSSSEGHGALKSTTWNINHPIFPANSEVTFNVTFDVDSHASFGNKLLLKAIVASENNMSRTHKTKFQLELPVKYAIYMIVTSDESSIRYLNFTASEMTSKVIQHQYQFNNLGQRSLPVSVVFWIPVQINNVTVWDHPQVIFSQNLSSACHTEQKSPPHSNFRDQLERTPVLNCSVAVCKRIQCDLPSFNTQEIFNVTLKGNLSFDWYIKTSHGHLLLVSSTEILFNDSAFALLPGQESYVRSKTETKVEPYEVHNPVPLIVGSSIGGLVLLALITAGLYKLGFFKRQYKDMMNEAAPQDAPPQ
UniProt P11835: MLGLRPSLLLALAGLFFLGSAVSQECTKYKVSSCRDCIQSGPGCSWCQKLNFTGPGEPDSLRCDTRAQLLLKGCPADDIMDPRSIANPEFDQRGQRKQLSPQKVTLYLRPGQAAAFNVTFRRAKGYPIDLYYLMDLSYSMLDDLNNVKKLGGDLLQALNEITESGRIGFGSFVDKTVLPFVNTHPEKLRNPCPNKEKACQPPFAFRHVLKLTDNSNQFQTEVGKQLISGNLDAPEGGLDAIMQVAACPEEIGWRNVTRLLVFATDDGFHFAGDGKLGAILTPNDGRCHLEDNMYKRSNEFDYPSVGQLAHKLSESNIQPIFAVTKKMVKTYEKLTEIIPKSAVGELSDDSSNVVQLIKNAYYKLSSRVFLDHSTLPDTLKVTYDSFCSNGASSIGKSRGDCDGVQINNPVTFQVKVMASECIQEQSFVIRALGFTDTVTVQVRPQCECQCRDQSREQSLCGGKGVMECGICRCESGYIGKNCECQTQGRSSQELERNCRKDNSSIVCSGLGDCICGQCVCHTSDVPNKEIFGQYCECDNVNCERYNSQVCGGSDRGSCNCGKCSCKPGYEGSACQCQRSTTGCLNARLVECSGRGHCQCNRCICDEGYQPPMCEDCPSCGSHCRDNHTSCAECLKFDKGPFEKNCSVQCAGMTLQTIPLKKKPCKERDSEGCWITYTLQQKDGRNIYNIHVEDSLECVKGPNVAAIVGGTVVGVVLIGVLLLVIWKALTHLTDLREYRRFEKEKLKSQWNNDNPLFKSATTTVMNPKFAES

binding [1]: binds | binding [2]: no binding
B1: neutrophil elastase (enzyme, UniProt Q3UP87 27-265)
chain: SEIVGGRPARPHAWPFMASLQRRGGHFCGATLIARNFVMSAAHCVNGLNFRSVQVVLGAHDLRRQERTRQTFSVQRIFENGFDPSQLLNDIVIIQLNGSATINANVQVAQLPAQGQGVGDRTPCLAMGWGRLGTNRPSPSVLQELNVTVVTNMCRRRVNVCTLVPRRQAGICFGDSGGPLVCNNLVQGIDSFIRGGCGSGLYPDAFAPVAEFADWINSIIRSHNDHLLTHPKDREGRTN

Reference: paper PMC4504024
